# Experimental data: PubChem BioAssay AID504834 (National Center for Advancing Translational Sciences (NCATS), 2011)
# In all, about 320,000 compounds went through this assay and about 22,000 (6.9%) were called active. The shares of active, inactive and inconclusive entries below differ from those in the screen. The call rests on the fitted dose curve; in most records, active means well fitted inhibition curve with a large enough effect; inconclusive means small, poorly fitted or top-dose-only effect, or another doubt; inactive means no such curve, though single readings can be large or run the other way. Where the call is inconclusive, the potency comes from a doubtful curve fit.
# Assay: Primary qHTS for delayed death inhibitors of the malarial parasite plastid, 96 hour incubation
# Conditions: P. falciparum luciferase reporter growth; series mostly up to 28.7 µM
# How it was run: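 Two-generation exposure (96 h) targets delayed-death phenotype. Reporter parasites carrying integrated firefly luciferase, in red cells at 2% hematocrit and 0.05% parasitemia final, kept at 37 C, 5% CO2; luminescence loss indicates inhibition.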
# Potency means the concentration at half of the fitted maximal effect.
row,SMILES,Potency
1,C/C(=N/NC(=O)c1cccc(N2CCCC2=O)c1)c1ccc(Br)cc1,inactive
2,Cc1ccc(C(C)C)c(OCc2nn(CC(=O)c3ccc(OC(F)F)cc3)c3[n+]2CCCCC3)c1,"inconclusive: 0.465 µM [inhibitor, partial curve, poor fit]"
3,CCOC(=O)CC1(c2ccc(OC)c(OC)c2)C(=O)c2ccccc2C1=O,"inconclusive: 11.7 µM [inhibitor, partial curve]"
4,Cc1cc(=O)[nH]c(SCc2ccc(Cl)cc2Cl)n1,inactive
5,CCOC(=O)c1cccc(NC(=O)C2CCCN(S(=O)(=O)c3c(C)n[nH]c3C)C2)c1 (stereo unspecified),"inconclusive: 18.5 µM [inhibitor, single point]"
6,O=C(CS(=O)(=O)Cc1ccccc1)NCc1ccc2c(c1)OCO2,inactive
7,Cc1ccccc1NC(=O)Cc1nc(COC(=O)Cc2c(F)cccc2Cl)cs1,"inconclusive: 11.7 µM [inhibitor, single point]"
8,CC(C)Cn1c(N)c(C(=O)COC(=O)c2cc(C(F)(F)F)nc3ccccc23)c(=O)n(C)c1=O,"inconclusive: 18.5 µM [inhibitor, single point]"
9,Cc1ccc(-c2nc(SC(C)C(=O)N3CCCC3)n[nH]2)cc1 (stereo unspecified),"inconclusive: 18.5 µM [inhibitor, single point]"
10,COC(=O)c1cc(NC(=O)c2cc(-c3ccc(OC)cc3)oc2C(F)(F)F)ccc1N1CCOCC1,active: 9.28 µM
11,CN1CCN(S(=O)(=O)c2ccc(NC(=O)c3ccc(F)cc3Cl)cc2)CC1,"inconclusive: 18.5 µM [inhibitor, single point]"
12,Cc1csc(NC(=O)c2cn3ccccc3n2)n1,inactive
13,Cc1cc(OCC(=O)NC2CC2)c2c(C)cc(=O)oc2c1,inactive
14,CCO[C@H]1OC(C(=O)N2CCN(Cc3ccccc3)CC2)=C[C@@H](c2ccccc2)[C@@H]1CCCO,"inconclusive: 13.1 µM [inhibitor, partial curve, poor fit]"
15,COc1ccc(CNC(=S)Nc2cc(C)cc(C)c2)cc1,"inconclusive: 18.5 µM [inhibitor, single point]"
16,Cc1ccc(C2C(C(=O)c3cccs3)=C(O)C(=O)N2c2nnc(C)s2)cc1 (stereo unspecified),"inconclusive: 0.0415 µM [inhibitor, full curve, poor fit]"
17,C[C@H](NC(=O)C1CCN(S(=O)(=O)c2ccccc2)CC1)C(=O)NCc1cccc(C(F)(F)F)c1,"inconclusive: 18.5 µM [inhibitor, single point]"
18,CN(C)c1ccc(/C=[N+](\[O-])C2SC(=S)N(C)C2(C)C)cc1 (stereo unspecified),"inconclusive: 1.47 µM [inhibitor, full curve]"
19,CSc1nc(-c2ccccc2)cn1-c1ccc(NC(C)=O)cc1,inactive
20,CC(=O)c1cnc2nc(SCc3ccc(Cl)cc3)nn2c1C,inactive
21,CCOc1cccc2sc(NN)nc12,"inconclusive: 2.08 µM [inhibitor, single point]"
22,COc1ccc(-c2nnc(SCC(=O)NCCC(C)C)nc2-c2ccc(OC)c(OC)c2)cc1OC,"inconclusive: 1.31 µM [inhibitor, partial curve, poor fit]"
23,Oc1cc(NCc2ccc(Cl)cc2)cc2cccnc12,"inconclusive: 2.62 µM [inhibitor, full curve, poor fit]"

# 3 entries out of the list, sorted by length of the SMILES, falling:
row,SMILES,Potency
17,C[C@H](NC(=O)C1CCN(S(=O)(=O)c2ccccc2)CC1)C(=O)NCc1cccc(C(F)(F)F)c1,"inconclusive: 18.5 µM [inhibitor, single point]"
22,COc1ccc(-c2nnc(SCC(=O)NCCC(C)C)nc2-c2ccc(OC)c(OC)c2)cc1OC,"inconclusive: 1.31 µM [inhibitor, partial curve, poor fit]"
13,Cc1cc(OCC(=O)NC2CC2)c2c(C)cc(=O)oc2c1,inactive

# Later entries

row,SMILES,Potency
1,COc1cc(C(=O)Nc2nc(-c3ccc(Cl)cc3)c(C)s2)ccc1OCC(=O)Nc1ccc(F)cc1,active: 4.15 µM
2,CC(C)COc1nc2ccccc2nc1C(C#N)C(=O)NC1CCCCC1 (stereo unspecified),"inconclusive: 3.7 µM [inhibitor, single point]"
3,CC(OC(=O)CNC(=O)c1ccc2ccccc2c1)C(=O)N(C)C1CCCCC1 (stereo unspecified),inactive
4,COCC(C)NC(=O)CCS(=O)(=O)c1nc(-c2ccc(OC)cc2)cc(C(F)(F)F)n1 (stereo unspecified),active: 9.28 µM
5,Cc1ccc2cc(/C=N/NC(=O)c3ccccc3O)c(Cl)nc2c1,"inconclusive: 13.1 µM [inhibitor, single point]"
6,N#Cc1ccc(OCC(O)CS(=O)(=O)c2ccccc2)cc1 (stereo unspecified),inactive
7,CC(CCc1ccc(O)cc1)NC1c2ccccc2-c2ccccc21 (stereo unspecified),"inconclusive: 13.1 µM [inhibitor, partial curve, poor fit]"
8,CCOc1ccc2cc(S(=O)(=O)N3CCOCC3)ccc2c1,inactive
9,O=C(NCc1c(Cl)cccc1Oc1ccccc1)c1ccccc1,"inconclusive: 7.38 µM [inhibitor, partial curve, poor fit]"
10,CCOc1ccc(NC(=O)CN(C)C(=O)CCCc2c[nH]c3ccccc23)cc1OCC,"inconclusive: 7.38 µM [inhibitor, partial curve]"
11,O=C(CCC(=O)c1ccc(Oc2ccccc2)cc1)Nc1ccc(C(=O)O)cc1,"inconclusive: 11.7 µM [inhibitor, single point]"
12,S=c1nc[nH]c2c1ncn2C1CCCO1 (stereo unspecified),inactive
13,CCN(CC)C(C(=O)Nc1ccc(C(C)C)cc1)c1ccc2c(c1)OCO2 (stereo unspecified),inactive
14,Fc1ccc(Nc2ccnc(C(F)(F)F)c2)cc1,"inconclusive: 11.7 µM [inhibitor, partial curve, poor fit]"
15,O=C(COc1ccc(F)cc1)Nc1nc(-c2ccccn2)cs1,"inconclusive: 10.4 µM [inhibitor, single point]"
16,CC(C)CN1C(=O)NC(NC(=O)c2ccco2)(C(F)(F)F)C1=O (stereo unspecified),"inconclusive: 18.5 µM [inhibitor, partial curve, poor fit]"
17,CC1(c2ccc(Cl)cc2)NC(=O)CS1 (stereo unspecified),active: 0.262 µM
18,O=C(Cn1c(=O)oc2cccnc21)Nc1ccccc1Oc1ccc(Cl)cc1Cl,inactive
19,Oc1c(Br)cc(/C=N/n2c(-c3ccccc3)n[nH]c2=S)c(O)c1Br,"inconclusive: 9.28 µM [inhibitor, single point]"
20,CC(NC(=O)C1CCCN(S(=O)(=O)c2cccs2)C1)c1ccccc1 (stereo unspecified),"inconclusive: 18.5 µM [inhibitor, single point]"
21,Cc1cnc(C(=O)NCCc2ccc(C(F)(F)F)cc2)cn1,inactive
22,O=C(OCCN1C(=O)c2ccccc2C1=O)Oc1ccccc1,inactive
23,Cc1nn(C)cc1CN(C)C(=O)c1cc(-c2ccccc2)nc2ccc(Br)cc12,"inconclusive: 18.5 µM [inhibitor, single point]"
